Consider one molecule from PubChem BioAssay AID198 (DTP/NCI, 2004).

Structures are written as SMILES. The list shows only some results of the screen, not a fair sample: it gathers some chemical classes. Other doses and runs of a compound may be missing. T/C: endpoint of the treated group in % of that of the vehicle group. For survival time, this PubChem deposit counts one and a half times the control or more as active, and values a quarter to a half above the control carry no call in these data; other NCI protocols may use other cut-offs. Some entries show no survivor count and are marked so; the dose need not have been tolerated. Schedules are NCI's codes, taken here to give the interval after Q, in days (D) or hours (H), and the number of doses after X. Some entries were tested several times; the values are given in rising order.

The assay has as its system B16 melanoma ip, C57BL/6 mice, median survival T/C. The assay is described as follows: NCI In Vivo Anticancer Drug Screen. Data for tumor model B16 Melanoma (intraperitoneal) in C57BL/6 mice. The conditions noted are these: T/C endpoint: median survival time, schedule: Q01DX009 (ip), vehicle: saline, higher T/C = longer survival. Here is the method:
The antitumor activity of compounds was measured in mice bearing transplantable tumors. Survival or tumor size were measured and the results are expressed as the measurement made in the treated group (T) divided by the measurement made in the vehicle treated control group (C). The tumor model used in this assay is B16 Melanoma (intraperitoneal) in C57BL/6 mice

On to `CC(C(=O)O)N(CCCl)CCCl` (centres undefined), for which the T/C is 125 % of control [survivor count not shown] (dose: 0.5 mg/kg/injection); 121 [survivor count not shown] and 161 % of control [survivor count not shown] (dose: 1.0 mg/kg/injection); 150 [survivor count not shown] and 203 % of control [survivor count not shown] (dose: 2.0 mg/kg/injection); 119 % of control [survivor count not shown] (dose: 4.0 mg/kg/injection).
